This is one part of the list. These are further read-outs of the screen, such as a control signal, another cell line or another target. No call is given for them. Most of these compounds were active or inconclusive in the main read-out, so they are no random draw. Words in brackets tell the shape of the fitted curve; partial curves, single points and poor fits give uncertain potencies.
Assay: qHTS Assay for Lipid Storage Modulators in Drosophila S3 Cells;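 for cell number change: cells counted by Cell Tracker Red CMTPX staining in the red channel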
Settings: BODIPY lipid droplet fluorescence, 18-24 h; for cell number change: measured here: cell count max response, cells fed with added oleic acid
How it was run: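 Drosophila S3 cells loaded with oleic acid (400 uM, as added) and compounds at several concentrations; lipid droplets imaged by 488-nm laser-scanning cytometry, 500–530 nm intensity and object ratio to cell channel. Percent activity normalized to 20 uM Triacsin C.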

[1] = measured here: lipid fluorescence (Fed channel) AC50, cells fed with added oleic acid
[2] = measured here: cell number channel AC50, cells fed with added oleic acid

COc1ccc(CN(C)C(C)C(=O)Nc2cccc3ccccc23)cc1 (configuration not stated)
cell number change: 12.1%
AC50 [1]: 0.146 µM [falling, full curve, poor fit]

CC(C)(C)c1ccc(C(=O)CCC(=O)NCc2ccccc2)cc1
AC50 [1]: 29.1 µM [falling, single point]

CCS(=O)(=O)n1nc(-c2ccccc2)nc1SCc1ccccc1
AC50 [2]: 1.84 µM [falling, partial curve]
AC50 [1]: 2.91 µM [falling, partial curve, poor fit]

c1ccc(-c2nc(-n3ccnc3)nc(-n3ccnc3)n2)cc1
cell number change: -32.8%
AC50 [2]: 13 µM [falling, single point]
AC50 [1]: 0.13 µM [rising, full curve, poor fit]

Cc1ccc(-c2nnn(CC(=O)N(CC(=O)NC3CCCC3)c3cnc4ccccc4c3)n2)o1
cell number change: 34.7%
AC50 [2]: 10.3 µM [rising, partial curve]

O=C(NCC(=O)N1CCN(S(=O)(=O)c2cccc(F)c2)CC1)c1ccc(Br)o1
cell number change: 46.9%
AC50 [2]: 25.9 µM [rising, single point]
AC50 [1]: 25.9 µM [rising, partial curve]

COc1ccc(C(C(=O)NCc2ccccc2)N(Cc2ccc3c(c2)OCO3)C(=O)c2cnccn2)cc1 (configuration not stated)
cell number change: 41.9%
AC50 [2]: 0.411 µM [rising, full curve]
AC50 [1]: 29.1 µM [rising, single point]

CCn1cc(C2=NC(C)CO2)c2ccccc21 (configuration not stated)
cell number change: 42.3%
AC50 [2]: 29.1 µM [rising, single point]
AC50 [1]: 29.1 µM [rising, single point]

Clc1ccc2nc(CSc3nc4ccccc4o3)cn2c1
AC50 [2]: 2.06 µM [rising, partial curve]

CCOC(=O)c1cc(NC(=O)N(C(C)C)C(C)C)c(C)nc1C
cell number change: 27.9%
AC50 [2]: 0.326 µM [rising, full curve]
AC50 [1]: 0.82 µM [rising, full curve]

COc1ccc(NC(=O)CC2SC(N3CCCCC3)=NC2=O)cc1OC (configuration not stated)
cell number change: 1.83%
AC50 [1]: 0.731 µM [falling, single point]

O=S(=O)(O)c1cc(O)c2c(O)c(N=Nc3cc(Cl)ccc3O)c(S(=O)(=O)O)cc2c1
cell number change: 7.21%
AC50 [2]: 6.51 µM [rising, single point]
AC50 [1]: 6.51 µM [rising, single point]

CCCC(=O)N(Cc1cc2ccccc2[nH]c1=O)c1ccccc1OC
cell number change: 114%
AC50 [2]: 23.1 µM [rising, partial curve]

COc1ccc(S(=O)(=O)N2CCOC2CNC(=O)C(=O)NCCN(C)C)cc1 (configuration not stated)
cell number change: -4.86%
AC50 [1]: 0.82 µM [falling, full curve]

Cc1cc(C(=O)NC(=S)Nc2cccc(NC(=O)C(C)C)c2)ccc1[N+](=O)[O-]
cell number change: -47.4%
AC50 [2]: 1.64 µM [falling, full curve]
AC50 [1]: 1.84 µM [falling, full curve]

COCCCNC(=S)N1CCN(c2ccccc2)CC1
cell number change: 11.7%
AC50 [2]: 6.51 µM [falling, single point]
AC50 [1]: 6.51 µM [falling, single point]

CCOCCCN(C(=O)c1ccco1)C(C(=O)NC1CCCC1)c1cccc(OC)c1OC (configuration not stated)
cell number change: 3.03%
AC50 [1]: 6.51 µM [rising, single point]

Cc1sc2ncnc(N3CCC(C(=O)Nc4ccccc4C(C)(C)C)CC3)c2c1C
cell number change: -10.8%

Nc1ccc(CCS(N)(=O)=O)cc1
cell number change: 3.25%
AC50 [1]: 6.51 µM [falling, single point]

COc1ccc(CC(=O)OCC(=O)Nc2ccc3c(c2)OCO3)cc1
cell number change: -8.88%
AC50 [1]: 0.00517 µM [falling, full curve, poor fit]

COc1cccc(NC(=O)CSCc2cc(=O)n3ccsc3n2)c1
cell number change: 30.6%
AC50 [2]: 0.00461 µM [rising, full curve, poor fit]
AC50 [1]: 23.1 µM [rising, single point]

CC1CN(C(=S)Nc2cccc(F)c2)CC(C)O1 (configuration not stated)
cell number change: 18.1%

CCC(C)[C@H](NC(=O)OC(C)(C)C)C(=O)N/N=C/c1cccc2nccnc12 (some centres not stated)
cell number change: 18.4%
AC50 [1]: 6.51 µM [rising, single point]

CCN(c1ccccc1)c1nc(=O)c2cccnc2s1
AC50 [2]: 0.82 µM [rising, single point]

S=C(NCCc1c[nH]c2ccccc12)NC1CCCC1
cell number change: 41.8%

Cc1ccc(NC2=NCCCCC2)cc1
cell number change: 19.7%

CC(C)CC(N=Cc1c(O)c2ccccc2oc1=O)C(=O)O (configuration not stated)
AC50 [1]: 0.82 µM [rising, single point]

Cc1[nH]n(-c2ccccc2)c(=O)c1C(c1ccccc1C(=O)O)c1c(C)[nH]n(-c2ccccc2)c1=O
cell number change: 12.1%
AC50 [1]: 0.116 µM [falling, full curve, poor fit]

COc1ccc(NC(=O)CN(C)S(=O)(=O)c2ccc(Cl)cc2)cc1Cl
cell number change: 1.14%
AC50 [1]: 0.00461 µM [falling, full curve, poor fit]

CN(Cc1cccs1)C(=O)c1cccc(S(=O)(=O)N2CCCCCC2)c1
cell number change: 48.6%
AC50 [2]: 32.6 µM [rising, single point]
AC50 [1]: 25.9 µM [rising, single point]

Cc1cc(C)c(OCCN2CCCC2)c(Cl)c1
cell number change: 0.676%
AC50 [1]: 1.16 µM [falling, partial curve]

Cc1ccc(C(=O)N2CC(=O)Nc3ccc(C)cc3C2c2ccccc2)cc1 (configuration not stated)
AC50 [2]: 2.91 µM [rising, single point]

O=C(NC1=NCCS1)c1ccc(Br)s1
cell number change: -18.8%
AC50 [1]: 29.1 µM [rising, single point]

COc1ccc(C(=O)CCC(=O)NCc2cc(OC)cc(OC)c2)cc1
cell number change: -5.65%
AC50 [1]: 6.51 µM [falling, full curve]

Cc1ccc2nc(-c3ccc(SCC(=O)Nc4nnc(C)s4)nc3)[nH]c2c1
cell number change: -20.5%
AC50 [2]: 2.91 µM [falling, full curve, poor fit]
AC50 [1]: 20.6 µM [falling, partial curve]

Cc1ccccc1C(=O)NNS(=O)(=O)c1cccc([N+](=O)[O-])c1
cell number change: -26.1%

CCCN1CCN(CCCNC(=O)Cn2nc(C)n3c(cc4cc(OC)ccc43)c2=O)CC1
AC50 [1]: 29.1 µM [falling, single point]

COc1cccc(CCNC(=O)COc2cccc3c2OC(C)(C)C3)c1
cell number change: -50%
AC50 [2]: 29.1 µM [falling, single point]
AC50 [1]: 0.146 µM [rising, full curve, poor fit]

Clc1ccc2c(N3CCCC3)ccnc2c1
AC50 [2]: 4.11 µM [falling, single point]

CCCCc1nnc(NC(=O)c2ccc3c(=O)n4c(nc3c2)CCC4)s1
cell number change: 22.9%

COC(=O)C1=C(C)NC(C)=C(C(=O)OC)C1C(=O)OC(C)C(=O)c1ccccc1 (configuration not stated)
cell number change: -25%
AC50 [1]: 2.06 µM [falling, partial curve, poor fit]

O=[N+]([O-])c1ccc(Cl)c(/C=N/n2c(C3CCCCC3)n[nH]c2=S)c1
AC50 [1]: 0.146 µM [rising, full curve, poor fit]

CCOc1ccc(OCC)c(S(=O)(=O)NCc2ccc3c(c2)OCO3)c1
AC50 [1]: 0.00461 µM [rising, full curve, poor fit]

COc1cccc(/C=C2\SC(=S)N(CCC(=O)Nc3ccc(O)cc3)C2=O)c1
cell number change: -6.38%
AC50 [1]: 32.6 µM [falling, single point]

CCN(CC)C(=O)CSc1nc(-c2ccco2)cc(C(F)(F)F)c1C#N
cell number change: -47.1%
AC50 [2]: 11.6 µM [falling, partial curve, poor fit]
AC50 [1]: 14.6 µM [falling, partial curve]

Cc1ccccc1NC(=O)C(C)Sc1nnc(-c2ccncc2)n1CC1CCCO1 (configuration not stated)
AC50 [1]: 0.112 µM [falling, full curve, poor fit]

CC(Oc1ccc(Cl)cc1Cl)C(=O)Nc1ccc(N2CCN(C)CC2)cc1 (configuration not stated)
cell number change: -37.7%
AC50 [2]: 29.1 µM [falling, single point]

COc1cccc(NC(=O)CSCc2n[nH]c(=O)[nH]2)c1
cell number change: -4.37%
AC50 [1]: 29.1 µM [falling, single point]

CCC1COC(c2cccn2Cc2ccccc2Cl)=N1 (configuration not stated)
cell number change: -20.8%
AC50 [1]: 0.058 µM [falling, full curve, poor fit]

COc1cccc(-n2cnnc2SC(C)C(=O)NC2CCCC2)c1 (configuration not stated)
cell number change: -12.9%
AC50 [1]: 0.146 µM [falling, full curve, poor fit]

Cn1c(=O)oc2cc(S(=O)(=O)N3CCN(c4ccc(F)cc4)CC3)ccc21
AC50 [1]: 0.82 µM [falling, single point]

CC1CCC/C(=N\NC(=O)COc2ccc(Cl)cc2Cl)C1 (configuration not stated)
cell number change: 47.7%
AC50 [2]: 23.1 µM [rising, single point]

N/C(=N\OC(=O)c1csnn1)c1ccc(C(F)(F)F)cc1
cell number change: 34.7%
AC50 [2]: 7.31 µM [rising, full curve, poor fit]

CCC(C)NS(=O)(=O)c1ccc(S(=O)(=O)N(CCc2ccc(OC)c(OC)c2)Cc2cccs2)cc1 (configuration not stated)
cell number change: -16.2%
AC50 [1]: 18.4 µM [falling, single point]

NS(=O)(=O)c1ccc(NC(=O)C2CCCO2)cc1 (configuration not stated)
cell number change: -44.8%
AC50 [2]: 16.4 µM [falling, single point]

CCN(c1ccccc1)S(=O)(=O)c1ccc(F)c(C(=O)O)c1
cell number change: 7.34%

CC(C)(C)NC(=O)C(Cc1ccccc1)NS(=O)(=O)c1ccc2c(c1)CCC(=O)N2 (configuration not stated)
cell number change: 159%
AC50 [2]: 18.4 µM [rising, partial curve]
AC50 [1]: 20.6 µM [rising, partial curve]

COc1cc(CNc2ccc3c(c2)OCCO3)ccc1OCC(N)=O
cell number change: 0.722%
AC50 [1]: 0.92 µM [falling, full curve, poor fit]

From PubChem BioAssay AID2685 (National Center for Advancing Translational Sciences (NCATS), 2010)
